Reference: patent US20180265577A1
Results are given in words; binding and its absence hold for the method and conditions named. Some results given as binding are weak or reduced against the parent protein; the word gives no strength.

Protein sequences, listed by entry. Tags and fused reporters are not part of them. Lines headed by an entry give the natural chain unless they say otherwise; changes in a name come on top. Chains listed by the source or under a name are the forms on record and can include a tag or linker.
UniProt P10636: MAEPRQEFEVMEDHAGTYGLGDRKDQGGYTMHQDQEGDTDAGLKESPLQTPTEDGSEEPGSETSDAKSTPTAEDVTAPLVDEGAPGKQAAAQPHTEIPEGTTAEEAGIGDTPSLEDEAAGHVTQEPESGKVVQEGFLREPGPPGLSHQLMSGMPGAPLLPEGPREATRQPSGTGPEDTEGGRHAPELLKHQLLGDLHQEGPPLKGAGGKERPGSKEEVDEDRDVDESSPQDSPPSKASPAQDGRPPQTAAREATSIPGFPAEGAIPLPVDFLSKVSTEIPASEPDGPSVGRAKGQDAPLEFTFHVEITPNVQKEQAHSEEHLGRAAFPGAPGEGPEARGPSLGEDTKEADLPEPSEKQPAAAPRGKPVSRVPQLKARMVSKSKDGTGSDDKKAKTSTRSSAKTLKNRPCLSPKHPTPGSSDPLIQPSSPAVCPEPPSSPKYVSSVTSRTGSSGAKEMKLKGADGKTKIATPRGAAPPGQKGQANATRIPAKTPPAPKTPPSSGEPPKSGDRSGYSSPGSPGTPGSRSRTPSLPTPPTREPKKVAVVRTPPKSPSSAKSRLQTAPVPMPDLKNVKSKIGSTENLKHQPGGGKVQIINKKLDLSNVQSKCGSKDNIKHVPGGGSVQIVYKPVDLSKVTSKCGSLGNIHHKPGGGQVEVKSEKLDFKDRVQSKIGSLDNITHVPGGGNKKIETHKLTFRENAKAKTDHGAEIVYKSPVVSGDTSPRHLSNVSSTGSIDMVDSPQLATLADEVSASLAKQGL
aggregated tau in FFPE brain sections of an AD patient (P10636, form named): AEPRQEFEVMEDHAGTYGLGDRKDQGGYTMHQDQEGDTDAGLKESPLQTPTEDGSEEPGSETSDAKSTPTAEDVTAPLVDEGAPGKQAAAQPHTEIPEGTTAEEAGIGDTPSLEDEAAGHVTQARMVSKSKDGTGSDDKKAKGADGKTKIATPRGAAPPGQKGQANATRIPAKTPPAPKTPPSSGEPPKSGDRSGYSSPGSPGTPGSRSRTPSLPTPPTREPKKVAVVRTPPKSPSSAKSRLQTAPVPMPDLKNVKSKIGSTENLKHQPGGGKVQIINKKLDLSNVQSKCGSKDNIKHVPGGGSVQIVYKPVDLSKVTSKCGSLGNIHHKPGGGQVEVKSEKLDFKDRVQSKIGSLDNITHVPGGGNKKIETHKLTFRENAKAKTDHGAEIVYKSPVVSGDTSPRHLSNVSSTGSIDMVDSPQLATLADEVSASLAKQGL
aggregated tau in FFPE brain sections of a PD (Pick's disease) patient (P10636, form named): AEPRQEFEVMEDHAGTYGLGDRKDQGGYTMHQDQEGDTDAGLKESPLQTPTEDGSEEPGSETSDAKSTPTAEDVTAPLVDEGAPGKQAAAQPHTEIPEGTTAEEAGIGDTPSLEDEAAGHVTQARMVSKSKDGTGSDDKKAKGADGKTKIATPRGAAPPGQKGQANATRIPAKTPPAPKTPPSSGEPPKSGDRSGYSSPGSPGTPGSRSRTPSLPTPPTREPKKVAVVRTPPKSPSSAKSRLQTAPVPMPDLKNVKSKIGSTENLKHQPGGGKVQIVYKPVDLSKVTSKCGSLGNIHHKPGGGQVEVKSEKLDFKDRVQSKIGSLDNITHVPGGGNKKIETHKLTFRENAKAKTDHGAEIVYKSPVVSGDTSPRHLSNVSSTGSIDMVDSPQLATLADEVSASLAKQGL

Key:
[1] = biological target: aggregated tau in FFPE brain sections of a "normal" individual (displaying minimal tau aggregation) (human) (UniProt P10636); experiment: immunohistochemistry on FFPE brain sections, semi-quantitative score (mild, +)
[2] = biological target: aggregated tau in FFPE brain sections of a "normal" individual (displaying minimal tau aggregation) (human) (UniProt P10636); experiment: immunohistochemistry on FFPE brain sections
[3] = biological target: aggregated tau in FFPE brain sections of a PD (Pick's disease) patient (human) (UniProt P10636); experiment: immunohistochemistry on FFPE brain sections
[4] = biological target: aggregated tau in FFPE brain sections of an AD patient (human) (UniProt P10636); experiment: immunohistochemistry on FFPE brain sections
[5] = biological target: aggregated tau in FFPE brain sections of a PD (Pick's disease) patient (human) (UniProt P10636); experiment: immunohistochemistry on FFPE brain sections, semi-quantitative score (severe, +++)
[6] = biological target: aggregated tau in FFPE brain sections of an AD patient (human) (UniProt P10636); experiment: as above
[7] = biological target: recombinant tau (rTau) (UniProt P10636); experiment: direct ELISA on rTau coated at 15 ng/ml after accelerated degradation

Measured: binding

B1: exemplified tau monoclonal antibody of Example 1 (antibody, human IgG4 S228P, kappa, F234A L235A, V domains shown)
VH: EVQLVQSGAEVKKPGESLKISCKGSGYTFSNYWIEWVRQMPGKGLEWMGEILPGSDSIKYEKNFKGQVTISADKSISTAYLQWSSLKASDTAMYYCARRGNYVDDWGQGTLVTVSS
VL: EIVLTQSPGTLSLSPGERATLSCRSSQSLVHSNQNTYLHWYQQKPGQAPRLLIYKVDNRFSGIPDRFSGSGSGTDFTLTISRLEPEDFAVYYCSQSTLVPLTFGGGTKVEIKR
binds: all assays above
